Measurements taken from the supplement of paper PMC6411743.
± gives the standard deviation of the averaged measurements. The list shows a part of the results.

Chains of the proteins cited; added tags and fusions are not shown. Lines headed by an entry give the natural chain unless they say otherwise; changes in a name come on top.
UniProt P62166, whole entry, looked up: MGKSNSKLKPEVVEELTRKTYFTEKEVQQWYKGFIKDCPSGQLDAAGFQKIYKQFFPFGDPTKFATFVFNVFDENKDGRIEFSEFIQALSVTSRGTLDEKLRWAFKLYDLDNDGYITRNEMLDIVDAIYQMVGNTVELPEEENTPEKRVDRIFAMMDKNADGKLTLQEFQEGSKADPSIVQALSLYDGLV
UniProt P61225: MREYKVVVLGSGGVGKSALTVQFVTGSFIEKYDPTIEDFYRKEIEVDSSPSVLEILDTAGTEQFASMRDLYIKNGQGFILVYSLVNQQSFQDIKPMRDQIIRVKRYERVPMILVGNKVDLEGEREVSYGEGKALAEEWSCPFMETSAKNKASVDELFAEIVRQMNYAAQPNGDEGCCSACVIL
UniProt P60033: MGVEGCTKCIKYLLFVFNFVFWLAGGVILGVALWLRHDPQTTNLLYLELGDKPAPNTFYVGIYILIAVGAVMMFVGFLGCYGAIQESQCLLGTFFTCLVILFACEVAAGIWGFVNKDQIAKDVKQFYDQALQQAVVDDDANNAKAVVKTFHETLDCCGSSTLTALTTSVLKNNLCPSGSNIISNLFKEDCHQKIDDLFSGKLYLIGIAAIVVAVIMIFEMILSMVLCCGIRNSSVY
UniProt P54727: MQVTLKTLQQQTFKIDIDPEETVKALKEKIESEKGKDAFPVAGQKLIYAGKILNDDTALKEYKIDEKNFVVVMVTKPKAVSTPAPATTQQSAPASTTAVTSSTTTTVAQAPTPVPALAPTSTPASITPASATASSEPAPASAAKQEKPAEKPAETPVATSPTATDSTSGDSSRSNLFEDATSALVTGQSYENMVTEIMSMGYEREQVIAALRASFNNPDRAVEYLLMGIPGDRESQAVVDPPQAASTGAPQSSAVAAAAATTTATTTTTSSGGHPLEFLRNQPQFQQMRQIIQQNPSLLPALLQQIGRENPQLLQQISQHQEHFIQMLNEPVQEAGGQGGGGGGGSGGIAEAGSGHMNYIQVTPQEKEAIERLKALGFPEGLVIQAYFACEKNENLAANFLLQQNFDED
UniProt P62834: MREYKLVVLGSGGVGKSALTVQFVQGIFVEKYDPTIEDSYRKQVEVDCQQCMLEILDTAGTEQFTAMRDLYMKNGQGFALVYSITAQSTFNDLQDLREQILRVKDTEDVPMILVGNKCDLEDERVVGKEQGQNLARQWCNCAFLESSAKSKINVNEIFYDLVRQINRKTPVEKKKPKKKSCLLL
UniProt P54132: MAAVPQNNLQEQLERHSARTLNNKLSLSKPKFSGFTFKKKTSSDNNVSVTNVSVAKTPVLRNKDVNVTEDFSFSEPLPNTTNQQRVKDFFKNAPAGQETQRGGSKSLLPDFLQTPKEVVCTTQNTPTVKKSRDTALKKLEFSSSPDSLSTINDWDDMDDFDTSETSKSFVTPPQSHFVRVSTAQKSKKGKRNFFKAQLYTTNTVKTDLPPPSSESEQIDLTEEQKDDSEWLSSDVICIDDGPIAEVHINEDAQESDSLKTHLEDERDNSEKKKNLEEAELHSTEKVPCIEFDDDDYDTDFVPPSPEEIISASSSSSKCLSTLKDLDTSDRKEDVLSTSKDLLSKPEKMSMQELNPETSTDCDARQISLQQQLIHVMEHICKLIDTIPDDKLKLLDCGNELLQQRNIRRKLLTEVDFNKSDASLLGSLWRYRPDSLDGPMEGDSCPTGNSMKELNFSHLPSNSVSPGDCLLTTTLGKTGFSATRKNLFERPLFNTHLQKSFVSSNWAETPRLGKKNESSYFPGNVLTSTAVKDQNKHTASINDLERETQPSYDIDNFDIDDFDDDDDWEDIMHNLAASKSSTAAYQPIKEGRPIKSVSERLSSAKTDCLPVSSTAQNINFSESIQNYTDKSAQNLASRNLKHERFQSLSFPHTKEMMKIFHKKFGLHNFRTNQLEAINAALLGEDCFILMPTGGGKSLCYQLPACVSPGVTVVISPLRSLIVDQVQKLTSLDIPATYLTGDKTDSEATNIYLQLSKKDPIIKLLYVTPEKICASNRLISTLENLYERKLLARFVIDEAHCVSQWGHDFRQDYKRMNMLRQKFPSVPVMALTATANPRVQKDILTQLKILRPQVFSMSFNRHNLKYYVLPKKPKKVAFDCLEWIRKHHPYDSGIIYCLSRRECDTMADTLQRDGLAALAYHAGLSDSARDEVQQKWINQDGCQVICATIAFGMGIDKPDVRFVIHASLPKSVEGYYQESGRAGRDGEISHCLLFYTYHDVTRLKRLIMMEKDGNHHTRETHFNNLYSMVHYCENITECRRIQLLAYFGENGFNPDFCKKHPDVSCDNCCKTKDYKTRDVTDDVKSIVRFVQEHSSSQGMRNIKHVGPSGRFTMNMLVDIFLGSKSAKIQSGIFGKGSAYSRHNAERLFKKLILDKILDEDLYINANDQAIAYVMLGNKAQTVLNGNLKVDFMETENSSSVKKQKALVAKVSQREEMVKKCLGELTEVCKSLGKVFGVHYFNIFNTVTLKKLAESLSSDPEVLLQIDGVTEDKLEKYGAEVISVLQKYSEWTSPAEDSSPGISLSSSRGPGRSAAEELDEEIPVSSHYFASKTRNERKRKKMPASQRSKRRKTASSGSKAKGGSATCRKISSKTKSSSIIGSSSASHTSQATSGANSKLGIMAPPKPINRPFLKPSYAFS
UniProt P52655, whole entry: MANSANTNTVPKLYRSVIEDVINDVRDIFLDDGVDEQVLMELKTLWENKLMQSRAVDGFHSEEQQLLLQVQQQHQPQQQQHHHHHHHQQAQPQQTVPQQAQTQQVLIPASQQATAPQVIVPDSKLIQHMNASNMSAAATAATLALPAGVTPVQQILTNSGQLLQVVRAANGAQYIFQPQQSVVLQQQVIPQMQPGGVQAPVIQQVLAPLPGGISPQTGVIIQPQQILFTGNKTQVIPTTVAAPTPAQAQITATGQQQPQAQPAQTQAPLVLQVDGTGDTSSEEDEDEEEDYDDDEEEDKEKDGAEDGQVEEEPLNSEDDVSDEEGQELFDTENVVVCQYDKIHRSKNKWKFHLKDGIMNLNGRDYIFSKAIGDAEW

Compound: Nc1nc2c(ncn2[C@@H]2O[C@H](COP(=O)(O)OP(=O)(O)OP(=O)(O)O)[C@@H](O)[C@H]2O)c(=O)[nH]1 [guanosine triphosphate]
Experiment: NP40-soluble protein abundance relative to vehicle (solubility fold change) (ratio); higher = more soluble protein in presence of GTP
In short: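 Data come from three independent experiments in which Dounce-homogenised Jurkat crude lysate was treated at eight concentrations from 0.1 to 10 mM. Treatment ran 10 min at room temperature and then 3 min at 37 °C, after which 0.8% NP40 and benzonase were added for 60 min at 4 °C before ultracentrifugation. The supernatant underwent TMT labelling and LC-MS/MS, and vsn-normalised intensities were expressed as fold change against the detergent-processed vehicle in each replicate.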

Target | NP40-soluble protein abundance (concentration: 0.1mM) | NP40-soluble protein abundance (concentration: 0.5mM) | NP40-soluble protein abundance (concentration: 1mM) | NP40-soluble protein abundance (concentration: 2mM) | NP40-soluble protein abundance (concentration: 4mM) | NP40-soluble protein abundance (concentration: 6mM) | NP40-soluble protein abundance (concentration: 8mM) | NP40-soluble protein abundance (concentration: 10mM)
NCS1 (UniProt P62166) | 0.952 ± 0.091 | 0.944 ± 0.12 | 0.9888 ± 0.0021 | 0.902 ± 0.21 | 0.907 ± 0.011 | 0.894 ± 0.089 | 0.857 ± 0.14 | 0.8225 ± 0.0015
UniProt P61225 | 0.926 ± 0.046 | 1 ± 0.04 | 0.969 ± 0.065 | 0.933 ± 0.038 | 0.895 ± 0.061 | 0.88 ± 0.047 | 0.914 ± 0.072 | 0.902 ± 0.033
CD81 (UniProt P60033) | 0.95 ± 0.038 | 0.908 ± 0.066 | 0.913 ± 0.018 | 0.925 ± 0.092 | 0.901 ± 0.038 | 0.886 ± 0.044 | 0.872 ± 0.11 | 0.863 ± 0.082
UniProt P54727 and related entries | 0.887 ± 0.057 | 0.844 ± 0.059 | 0.937 ± 0.044 | 0.881 ± 0.054 | 0.889 ± 0.059 | 0.868 ± 0.037 | 0.842 ± 0.087 | 0.889 ± 0.03
UniProt P62834 | 0.978 ± 0.15 | 0.99 ± 0.14 | 0.914 ± 0.14 | 0.907 ± 0.096 | 0.904 ± 0.14 | 0.879 ± 0.14 | 0.881 ± 0.07 | 0.913 ± 0.069
BLM (UniProt P54132) | 1.01 ± 0.04 | 1.02 ± 0.026 | 0.998 ± 0.013 | 0.99 ± 0.063 | 1 ± 0.051 | 1.02 ± 0.044 | 1.02 ± 0.064 | 0.997 ± 0.011
GTF2A1 (UniProt P52655) | 0.961 ± 0.058 | 0.998 ± 0.014 | 1.03 ± 0.074 | 0.992 ± 0.01 | 0.992 ± 0.054 | 0.9 ± 0.075 | 0.951 ± 0.097 | 0.97 ± 0.028
